Experimental data: paper PMC4731418
These are yes or no findings as the source states them, for the method shown. In cells and extracts the contact can be indirect. Some results given as binding are weak or reduced against the parent protein; the word gives no strength.

Amino acid sequences for entries named in this document (tags omitted). A change or cut given only in a name is not applied to a line headed by its entry.
UniProt Q5EG47: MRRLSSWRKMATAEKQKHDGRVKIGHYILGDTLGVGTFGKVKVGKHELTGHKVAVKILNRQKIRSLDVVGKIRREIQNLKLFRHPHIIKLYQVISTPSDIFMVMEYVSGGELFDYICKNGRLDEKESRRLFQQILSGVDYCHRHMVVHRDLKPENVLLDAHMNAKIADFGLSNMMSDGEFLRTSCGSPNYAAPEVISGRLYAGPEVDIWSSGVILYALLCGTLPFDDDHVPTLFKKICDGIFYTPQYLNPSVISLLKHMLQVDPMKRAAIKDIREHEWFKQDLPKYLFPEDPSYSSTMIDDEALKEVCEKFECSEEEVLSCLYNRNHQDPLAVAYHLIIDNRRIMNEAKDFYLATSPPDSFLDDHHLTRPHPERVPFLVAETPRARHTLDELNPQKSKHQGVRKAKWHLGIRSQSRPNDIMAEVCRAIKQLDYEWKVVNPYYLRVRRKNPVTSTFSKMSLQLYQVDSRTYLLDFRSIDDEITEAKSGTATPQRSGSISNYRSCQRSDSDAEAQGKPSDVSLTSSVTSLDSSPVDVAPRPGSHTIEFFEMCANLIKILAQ
UniProt Q8VDP4: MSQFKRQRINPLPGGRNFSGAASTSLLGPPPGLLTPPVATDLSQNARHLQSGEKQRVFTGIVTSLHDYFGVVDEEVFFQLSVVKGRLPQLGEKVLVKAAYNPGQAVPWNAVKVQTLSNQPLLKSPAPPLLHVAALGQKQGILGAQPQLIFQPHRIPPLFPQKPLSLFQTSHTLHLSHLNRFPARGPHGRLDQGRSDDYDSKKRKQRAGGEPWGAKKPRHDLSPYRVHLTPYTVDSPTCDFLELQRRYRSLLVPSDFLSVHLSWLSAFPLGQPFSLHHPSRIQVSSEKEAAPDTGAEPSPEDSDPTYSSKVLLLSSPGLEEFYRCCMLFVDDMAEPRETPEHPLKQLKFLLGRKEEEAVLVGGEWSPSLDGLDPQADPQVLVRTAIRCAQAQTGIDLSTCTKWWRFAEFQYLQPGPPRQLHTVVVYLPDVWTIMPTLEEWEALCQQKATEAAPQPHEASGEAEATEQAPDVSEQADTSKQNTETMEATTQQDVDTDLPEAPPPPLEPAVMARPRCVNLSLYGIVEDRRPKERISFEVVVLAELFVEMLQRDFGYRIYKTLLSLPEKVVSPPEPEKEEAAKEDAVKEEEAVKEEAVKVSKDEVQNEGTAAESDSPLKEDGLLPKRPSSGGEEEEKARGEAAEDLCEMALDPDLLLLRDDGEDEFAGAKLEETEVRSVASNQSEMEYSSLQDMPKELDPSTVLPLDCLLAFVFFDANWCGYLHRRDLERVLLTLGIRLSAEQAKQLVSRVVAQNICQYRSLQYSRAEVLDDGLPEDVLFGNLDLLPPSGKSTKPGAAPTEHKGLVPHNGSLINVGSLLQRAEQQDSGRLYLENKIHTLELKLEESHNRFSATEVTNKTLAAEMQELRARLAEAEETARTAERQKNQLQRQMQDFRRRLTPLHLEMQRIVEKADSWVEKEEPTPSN
UniProt P42859: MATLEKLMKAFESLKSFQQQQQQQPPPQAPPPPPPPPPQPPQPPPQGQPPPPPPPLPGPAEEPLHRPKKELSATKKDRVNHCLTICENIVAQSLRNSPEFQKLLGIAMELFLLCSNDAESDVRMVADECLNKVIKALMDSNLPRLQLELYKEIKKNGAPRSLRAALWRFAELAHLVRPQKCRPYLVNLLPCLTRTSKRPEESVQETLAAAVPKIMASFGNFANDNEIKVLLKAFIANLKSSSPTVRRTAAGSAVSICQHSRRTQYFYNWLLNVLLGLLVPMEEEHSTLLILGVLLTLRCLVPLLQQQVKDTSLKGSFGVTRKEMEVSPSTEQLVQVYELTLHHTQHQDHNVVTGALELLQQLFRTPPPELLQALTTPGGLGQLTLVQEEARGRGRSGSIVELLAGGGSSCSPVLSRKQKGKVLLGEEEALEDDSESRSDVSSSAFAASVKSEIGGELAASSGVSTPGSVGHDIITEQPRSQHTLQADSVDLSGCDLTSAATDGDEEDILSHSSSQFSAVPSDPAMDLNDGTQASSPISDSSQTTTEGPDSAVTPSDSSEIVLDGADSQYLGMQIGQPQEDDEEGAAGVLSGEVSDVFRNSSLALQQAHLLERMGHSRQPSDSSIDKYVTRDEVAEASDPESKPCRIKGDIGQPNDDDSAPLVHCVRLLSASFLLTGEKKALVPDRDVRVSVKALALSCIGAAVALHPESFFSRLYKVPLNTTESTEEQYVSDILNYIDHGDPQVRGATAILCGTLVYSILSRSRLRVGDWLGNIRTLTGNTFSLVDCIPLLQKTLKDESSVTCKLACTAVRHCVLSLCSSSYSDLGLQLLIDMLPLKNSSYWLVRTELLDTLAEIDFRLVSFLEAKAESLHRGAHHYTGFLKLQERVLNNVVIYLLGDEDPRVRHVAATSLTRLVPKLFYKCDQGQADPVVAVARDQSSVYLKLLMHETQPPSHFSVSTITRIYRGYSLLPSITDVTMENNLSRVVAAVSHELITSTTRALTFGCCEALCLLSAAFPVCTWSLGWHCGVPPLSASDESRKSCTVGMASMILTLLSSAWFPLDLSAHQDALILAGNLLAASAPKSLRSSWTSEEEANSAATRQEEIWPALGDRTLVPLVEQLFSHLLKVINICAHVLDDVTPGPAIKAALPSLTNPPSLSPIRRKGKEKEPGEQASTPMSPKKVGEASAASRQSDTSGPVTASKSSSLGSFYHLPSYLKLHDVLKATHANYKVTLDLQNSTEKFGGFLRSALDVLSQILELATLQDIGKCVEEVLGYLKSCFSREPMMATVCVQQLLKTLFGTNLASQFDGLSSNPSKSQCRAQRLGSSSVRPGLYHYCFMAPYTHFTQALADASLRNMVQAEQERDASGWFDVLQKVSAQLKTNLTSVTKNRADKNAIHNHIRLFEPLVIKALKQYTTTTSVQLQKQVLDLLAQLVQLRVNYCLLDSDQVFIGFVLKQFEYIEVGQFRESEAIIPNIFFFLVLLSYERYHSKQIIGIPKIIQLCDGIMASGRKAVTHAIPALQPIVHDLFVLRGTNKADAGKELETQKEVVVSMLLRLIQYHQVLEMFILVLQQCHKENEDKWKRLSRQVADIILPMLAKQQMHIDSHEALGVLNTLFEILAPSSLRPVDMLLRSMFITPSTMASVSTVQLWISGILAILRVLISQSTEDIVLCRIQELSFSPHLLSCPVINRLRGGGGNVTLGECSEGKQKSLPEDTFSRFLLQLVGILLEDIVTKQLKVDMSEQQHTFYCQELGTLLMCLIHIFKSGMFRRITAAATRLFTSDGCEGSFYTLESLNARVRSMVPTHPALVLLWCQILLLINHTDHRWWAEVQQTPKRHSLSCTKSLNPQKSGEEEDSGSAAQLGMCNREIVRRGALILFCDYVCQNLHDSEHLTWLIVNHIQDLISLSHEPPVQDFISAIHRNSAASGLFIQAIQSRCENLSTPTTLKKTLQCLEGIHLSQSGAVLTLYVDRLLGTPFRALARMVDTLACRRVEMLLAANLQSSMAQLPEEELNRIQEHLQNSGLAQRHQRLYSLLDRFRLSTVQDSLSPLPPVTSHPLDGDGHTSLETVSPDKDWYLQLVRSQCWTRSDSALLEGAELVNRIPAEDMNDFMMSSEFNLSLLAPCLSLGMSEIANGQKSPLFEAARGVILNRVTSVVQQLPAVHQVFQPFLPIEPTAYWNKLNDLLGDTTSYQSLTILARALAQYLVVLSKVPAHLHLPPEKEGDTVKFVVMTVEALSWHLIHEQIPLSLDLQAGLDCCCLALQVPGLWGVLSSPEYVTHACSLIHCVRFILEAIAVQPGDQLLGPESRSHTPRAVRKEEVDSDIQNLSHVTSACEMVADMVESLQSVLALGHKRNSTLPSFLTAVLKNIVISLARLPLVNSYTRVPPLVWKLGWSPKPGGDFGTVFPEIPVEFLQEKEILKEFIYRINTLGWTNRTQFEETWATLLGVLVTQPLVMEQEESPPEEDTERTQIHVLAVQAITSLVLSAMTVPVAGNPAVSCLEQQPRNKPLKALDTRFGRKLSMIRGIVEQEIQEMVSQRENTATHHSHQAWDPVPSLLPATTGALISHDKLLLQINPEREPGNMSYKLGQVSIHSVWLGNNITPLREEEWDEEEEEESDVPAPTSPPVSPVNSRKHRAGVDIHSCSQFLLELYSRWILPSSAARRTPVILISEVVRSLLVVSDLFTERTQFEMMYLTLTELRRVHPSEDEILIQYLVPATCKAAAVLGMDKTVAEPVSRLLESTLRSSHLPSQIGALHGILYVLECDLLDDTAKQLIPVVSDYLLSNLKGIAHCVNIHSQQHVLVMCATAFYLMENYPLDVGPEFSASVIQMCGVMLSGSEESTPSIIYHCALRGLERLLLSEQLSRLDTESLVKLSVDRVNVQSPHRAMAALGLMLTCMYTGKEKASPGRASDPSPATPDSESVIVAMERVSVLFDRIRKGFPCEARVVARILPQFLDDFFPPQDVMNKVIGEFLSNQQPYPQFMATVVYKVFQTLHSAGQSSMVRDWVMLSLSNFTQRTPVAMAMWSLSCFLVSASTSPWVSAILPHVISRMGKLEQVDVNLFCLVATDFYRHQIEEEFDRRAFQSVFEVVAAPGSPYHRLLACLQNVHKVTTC

Assays:
[1] = molecular target: AMP-activated protein kinase-α1 (AMPK-α1) (mouse (endogenous in mouse brain)) (UniProt Q5EG47); assay: co-IP; AMPK-α1 immunoprecipitated (1 μg antibody, 90 min, 4°C, protein G Dynabeads) from striatum and cerebellum lysates of 9-week R6/2, 22-month HdhQ150 homozygous and WT littermate mice in NETN buffer; western blot for DBC1
[2] = molecular target: T1, SIRT1 (mouse (endogenous in mouse brain)) (UniProt Q923E4); assay: co-IP; SIRT1 immunoprecipitated (1 μg antibody, 4 h, 4°C, protein G Dynabeads) from half brain lysates of R6/2 (9 weeks), HdhQ150 homozygous (22 months) and WT littermate mice in NETN buffer (20 mM Tris-HCl pH 8, 100 mM NaCl, 1 mM EDTA, 0.5% NP-40); western blot for HTT
T1 sequence: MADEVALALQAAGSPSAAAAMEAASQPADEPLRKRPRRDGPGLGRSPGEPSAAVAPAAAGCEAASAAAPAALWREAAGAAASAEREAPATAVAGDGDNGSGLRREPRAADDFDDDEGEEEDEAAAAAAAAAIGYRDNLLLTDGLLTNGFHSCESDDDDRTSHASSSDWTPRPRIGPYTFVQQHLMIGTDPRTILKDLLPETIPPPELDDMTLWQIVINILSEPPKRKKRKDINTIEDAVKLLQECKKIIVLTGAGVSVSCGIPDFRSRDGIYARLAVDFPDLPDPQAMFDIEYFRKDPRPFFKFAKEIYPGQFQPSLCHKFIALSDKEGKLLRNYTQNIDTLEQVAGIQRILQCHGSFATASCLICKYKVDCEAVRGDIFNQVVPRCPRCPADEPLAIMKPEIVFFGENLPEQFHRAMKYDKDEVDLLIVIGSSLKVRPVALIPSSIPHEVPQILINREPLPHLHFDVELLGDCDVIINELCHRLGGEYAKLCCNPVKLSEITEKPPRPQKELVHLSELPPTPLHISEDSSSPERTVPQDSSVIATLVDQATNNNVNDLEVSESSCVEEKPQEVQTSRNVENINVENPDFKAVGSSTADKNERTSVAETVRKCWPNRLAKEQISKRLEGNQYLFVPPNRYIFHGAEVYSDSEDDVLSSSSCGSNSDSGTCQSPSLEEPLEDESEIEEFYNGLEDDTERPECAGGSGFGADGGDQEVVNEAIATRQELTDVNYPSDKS

Row | Substance | binding [1] | binding [2]
1 | DBC1 (deleted in breast cancer 1) (from UniProt Q8VDP4 1-922) | binds | 
2 | huntingtin protein (HTT), endogenous wild-type mouse (from UniProt P42859 1-3119) |  | binds
